Values quoted from earlier work as cited in patent EP0102564A2, “Method for the removal of toxins bound to protein or lipid from blood or blood fractions, and use of certain compounds as liberating agents” (FRAUNHOFER-GESELLSCHAFT ZUR FÖRDERUNG DER ANGEWANDTEN …, priority 1982, dated 1984).

Tested on: Plasmaproteine
Settings: plasma; cited from earlier work

In the case of `CN1C(=O)CN=C(c2ccccc2)c2cc(Cl)ccc21` [Diazepam], the “Bindung von Pharmaka an Plasmaproteine” value is listed as 96%.
